One data set concerns T1, FIR RRM1-2 WT.
T1 sequence (looked up): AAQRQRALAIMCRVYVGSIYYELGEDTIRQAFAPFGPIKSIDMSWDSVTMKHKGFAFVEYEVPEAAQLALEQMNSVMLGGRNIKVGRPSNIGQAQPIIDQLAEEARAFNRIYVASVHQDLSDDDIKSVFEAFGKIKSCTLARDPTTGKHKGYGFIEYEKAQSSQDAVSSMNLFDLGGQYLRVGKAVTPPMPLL
The data set can be described thus: ITC. To be noted: range given for the four non-preferred fragments; ITC: 25 mM HEPES pH 7.5, 150 mM NaCl, 0.5 mM TCEP, 20 C; protein 160-240 uM titrated into ssDNA 40-50 uM; recombinant protein; residues 101-293; protein details: N-terminal His6, removed by TEV; single-stranded DNA.

A further data set deals with T2, FIR RRM1-2 Y115F.
T2 sequence (looked up): T1 sequence (looked up) with Y15F
The data set can be described thus: ITC. To be noted: ITC: 25 mM HEPES pH 7.5, 150 mM NaCl, 0.5 mM TCEP, 20 C, protein 160-240 uM titrated into ssDNA 40-50 uM, recombinant protein, residues 101-293, protein details: N-terminal His6, removed by TEV, single-stranded DNA.

The mark [1] stands for this setting: range given for the four non-preferred fragments.

Substitutions are numbered along the chain they refer to. The exact form of at least one protein or probe is not confirmed. At least one verdict rests on a figure or table, not on a statement of the authors. Tags and fusion partners may be left off the protein sequences shown.

As for TAATTTT, the binding result in the data set with FIR RRM1-2 WT was “binds”. Take TCATTTT: the binding result with FIR RRM1-2 Y115F (setting [1]) and with FIR RRM1-2 WT was “binds” each time.

As to TGATTTT, the binding result in the data set on FIR RRM1-2 Y115F (setting [1]) and in the data set on FIR RRM1-2 WT was “binds” in each case. Turning to TTATTTT, the binding result with FIR RRM1-2 Y115F (range, virtually same as TTGTTTT) was “binds”. Take TTGTTTT: in the data set with FIR RRM1-2 Y115F (range, virtually same as TTATTTT), the binding result is listed as “binds”.

Source of the values: PMC10229228, “Structural insights into a regulatory mechanism of FIR RRM1–FUSE interaction”.
